At least one compound was matched to its structure with a doubt left.
Columns and labels:
FPP synthase = settings: cited from earlier work
A. thaliana Nudx1 = biological target: T1, A. thaliana Nudx1 (Arabidopsis thaliana, UniProt Q9CA40); assay: Phosphatase activity / steady-state kinetics of recombinant AtNudx1 (BIOMOL Green phosphate detection); type: biochemical
T1 construct: The open reading frames (ORFs) of Arabidopsis Nudix genes were PCR-amplified from cDNA; His8 (N, cleaved yes); made in house; host or cells: E. coli BL21(DE3)
Procedure: (§1) After removal of the cell debris by centrifugation, expressed proteins were purified from the supernatants by immobilized metal-affinity chromatography with HisPur Ni-NTA resin (ThermoFisher Scientific). Pure proteins were eluted with 50 mM Tris-HCL pH 8.0, 0.5 M NaCl buffer supplemented with 250 mM imidazole followed by buffer exchange to 50 mM Tris-HCl pH 8.0 and 0.2 M NaCl for storage. For the crystal screening and steady-state kinetic analysis described below, the N-terminal His8-tags of AtNudx1 and AtNudx3 were removed with thrombin and remaining histidine-tagged protein was removed by passing over HisPur Ni-NTA resin. AtNudx1 and AtNudx3 were further purified by size-exclusion chromatography on a Superdex 200 16/60 column (GE Lifesciences) equilibrated and eluted with 50 mM Tris-HCl pH 8.0 supplemented with 0.2 M NaCl and 2 mM dithiothreitol.
(§2) All enzyme assays described in the present disclosure were performed as follows. Phosphatase activity was monitored at 37° C. using BIOMOL Green reagent (Enzo Life Sciences) to detect and quantify released phosphate at 623 nm using a phosphate standard curve. The optimum pH for activity was determined using a three-component buffer system of 50 mM acetic acid, 50 mM MES, and 100 mM Tris-HCl with 0.1 mM IPP as substrate. Magnesium ion dependence was investigated with 1 mM to 20 mM MgCl2. […]

Sequences of proteins named here, by UniProt entry; tags and fusion partners are left off. A change or cut given only in a name is not applied to a line headed by its entry.
UniProt Q9CA40: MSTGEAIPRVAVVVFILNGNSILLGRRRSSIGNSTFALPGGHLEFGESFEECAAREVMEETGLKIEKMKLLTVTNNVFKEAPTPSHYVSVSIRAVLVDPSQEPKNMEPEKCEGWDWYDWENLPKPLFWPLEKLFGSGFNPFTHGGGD

A. thaliana Nudx3 = biological target: T2, A. thaliana Nudx3 (Arabidopsis thaliana, UniProt Q8L831); assay: Phosphatase activity / steady-state kinetics of recombinant AtNudx3 (BIOMOL Green phosphate detection); type: biochemical
T2 construct: His8 (N, cleaved yes); made in house; host or cells: E. coli BL21(DE3)
T2 sequence (Q8L831 1-772): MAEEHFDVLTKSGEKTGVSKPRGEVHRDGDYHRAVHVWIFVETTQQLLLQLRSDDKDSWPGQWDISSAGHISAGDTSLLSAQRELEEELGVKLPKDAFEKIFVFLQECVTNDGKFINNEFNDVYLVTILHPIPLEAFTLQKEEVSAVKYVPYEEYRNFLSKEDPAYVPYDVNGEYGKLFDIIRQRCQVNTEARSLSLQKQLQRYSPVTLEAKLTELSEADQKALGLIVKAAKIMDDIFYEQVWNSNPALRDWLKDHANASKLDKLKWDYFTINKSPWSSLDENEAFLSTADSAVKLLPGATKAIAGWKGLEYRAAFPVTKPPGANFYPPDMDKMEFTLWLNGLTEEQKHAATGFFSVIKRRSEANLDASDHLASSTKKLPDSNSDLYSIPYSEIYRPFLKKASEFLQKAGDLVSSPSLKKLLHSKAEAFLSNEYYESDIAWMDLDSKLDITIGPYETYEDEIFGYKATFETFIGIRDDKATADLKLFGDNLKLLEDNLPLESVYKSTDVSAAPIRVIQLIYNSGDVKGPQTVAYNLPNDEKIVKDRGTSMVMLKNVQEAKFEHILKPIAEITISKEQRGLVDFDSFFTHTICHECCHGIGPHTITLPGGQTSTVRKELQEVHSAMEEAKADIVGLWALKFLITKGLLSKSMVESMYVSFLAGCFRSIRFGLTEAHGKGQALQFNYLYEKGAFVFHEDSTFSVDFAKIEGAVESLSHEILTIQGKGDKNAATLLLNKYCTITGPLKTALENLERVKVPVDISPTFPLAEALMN
Procedure: as §1, §2

Q: Which “inhibition of FPP synthase” value (FPP synthase) does the source give for `C=C(C)CCOP(=O)(O)O` [IP, isopentenyl phosphate] here?
A: Its value is “competitively inhibited”.

Q: What about the “phosphatase activity with the compound as substrate” value (A. thaliana Nudx1) of the same compound?
A: The value was “No phosphatase activity was detected”.

Q: What about the “phosphatase activity with the compound as substrate” value (A. thaliana Nudx3) of the same compound?
A: The value was “No phosphatase activity was detected”.
